According to paper PMC6406377:
These are yes or no findings as the source states them, for the method shown. Binding seen in cells or lysates may run through a third protein. Some results given as binding are weak or reduced against the parent protein; the word gives no strength.

Sequences of proteins named here, by UniProt entry; tags and fusion partners are left off.
UniProt P10242: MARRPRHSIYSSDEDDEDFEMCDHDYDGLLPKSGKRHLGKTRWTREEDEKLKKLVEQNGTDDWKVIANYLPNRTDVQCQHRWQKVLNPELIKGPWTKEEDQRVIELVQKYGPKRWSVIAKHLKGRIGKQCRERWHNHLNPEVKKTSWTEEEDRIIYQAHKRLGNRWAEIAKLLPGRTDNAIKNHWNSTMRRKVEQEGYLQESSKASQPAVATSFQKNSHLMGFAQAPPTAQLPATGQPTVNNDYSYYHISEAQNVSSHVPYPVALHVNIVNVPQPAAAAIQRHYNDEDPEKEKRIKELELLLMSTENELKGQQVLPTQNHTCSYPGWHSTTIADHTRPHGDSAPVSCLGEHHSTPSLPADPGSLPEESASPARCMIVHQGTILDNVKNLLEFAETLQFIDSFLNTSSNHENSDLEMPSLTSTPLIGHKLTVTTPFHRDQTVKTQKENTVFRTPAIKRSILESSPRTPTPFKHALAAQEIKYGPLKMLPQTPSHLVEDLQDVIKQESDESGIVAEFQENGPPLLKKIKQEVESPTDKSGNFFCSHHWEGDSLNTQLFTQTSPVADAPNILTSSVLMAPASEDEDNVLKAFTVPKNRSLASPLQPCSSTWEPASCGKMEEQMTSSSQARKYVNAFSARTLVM

Target: c-MYB (Avian myeloblastosis viral oncogene homolog) (human (endogenous in 786-O and A498)) (UniProt P10242)
Test: co-IP; 1 mg of cell extracts from 786-O and A498 incubated overnight with anti-c-MYB or normal IgG on protein A Sepharose; washed with PBS-BSA and IGEPAL 0.2%; western blot with c-MYB and MYBBP1A antibodies

B1: MYB binding protein 1A (MYBBP1A) (protein, UniProt Q9BQG0 1-1328)
chain: MESRDPAQPMSPGEATQSGARPADRYGLLKHSREFLDFFWDIAKPEQETRLAATEKLLEYLRGRPKGSEMKYALKRLITGLGVGRETARPCYSLALAQLLQSFEDLPLCSILQQIQEKYDLHQVKKAMLRPALFANLFGVLALFQSGRLVKDQEALMKSVKLLQALAQYQNHLQEQPRKALVDILSEVSKATLQEILPEVLKADLNIILSSPEQLELFLLAQQKVPSKLKKLVGSVNLFSDENVPRLVNVLKMAASSVKKDRKLPAIALDLLRLALKEDKFPRFWKEVVEQGLLKMQFWPASYLCFRLLGAALPLLTKEQLHLVMQGDVIRHYGEHVCTAKLPKQFKFAPEMDDYVGTFLEGCQDDPERQLAVLVAFSSVTNQGLPVTPTFWRVVRFLSPPALQGYVAWLRAMFLQPDLDSLVDFSTNNQKKAQDSSLHMPERAVFRLRKWIIFRLVSIVDSLHLEMEEALTEQVARFCLFHSFFVTKKPTSQIPETKHPFSFPLENQAREAVSSAFFSLLQTLSTQFKQAPGQTQGGQPWTYHLVQFADLLLNHSHNVTTVTPFTAQQRQAWDRMLQTLKELEAHSAEARAAAFQHLLLLVGIHLLKSPAESCDLLGDIQTCIRKSLGEKPRRSRTKTIDPQEPPWVEVLVEILLALLAQPSHLMRQVARSVFGHICSHLTPRALQLILDVLNPETSEDENDRVVVTDDSDERRLKGAEDKSEEGEDNRSSESEEESEGEESEEEERDGDVDQGFREQLMTVLQAGKALGGEDSENEEELGDEAMMALDQSLASLFAEQKLRIQARRDEKNKLQKEKALRRDFQIRVLDLVEVLVTKQPENALVLELLEPLLSIIRRSLRSSSSKQEQDLLHKTARIFTHHLCRARRYCHDLGERAGALHAQVERLVQQAGRQPDSPTALYHFNASLYLLRVLKGNTAEGCVHETQEKQKAGTDPSHMPTGPQAASCLDLNLVTRVYSTALSSFLTKRNSPLTVPMFLSLFSRHPVLCQSLLPILVQHITGPVRPRHQACLLLQKTLSMREVRSCFEDPEWKQLMGQVLAKVTENLRVLGEAQTKAQHQQALSSLELLNVLFRTCKHEKLTLDLTVLLGVLQGQQQSLQQGAHSTGSSRLHDLYWQAMKTLGVQRPKLEKKDAKEIPSATQSPISKKRKKKGFLPETKKRKKRKSEDGTPAEDGTPAATGGSQPPSMGRKKRNRTKAKVPAQANGTPTTKSPAPGAPTRSPSTPAKSPKLQKKNQKPSQVNGAPGSPTEPAGQKQHQKALPKKGVLGKSPLSALARKKARLSLVIRSPSLLQSGAKKKAQVRKAGKP
For B1, the binding was “binds”.
